The record followed here is patent US20130115166A1.

Protein sequences, listed by entry. Tags and fused reporters are not part of them. Lines headed by an entry give the natural chain unless they say otherwise; changes in a name come on top.
UniProt Q9NPF7: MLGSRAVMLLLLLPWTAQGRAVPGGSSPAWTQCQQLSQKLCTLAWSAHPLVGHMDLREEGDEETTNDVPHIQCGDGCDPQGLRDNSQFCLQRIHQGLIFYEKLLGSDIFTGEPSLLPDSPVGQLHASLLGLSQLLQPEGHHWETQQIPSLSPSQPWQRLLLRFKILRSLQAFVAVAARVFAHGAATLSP

Assay [1] addresses IL-23Fc (human) (UniProt Q9NPF7). Description: ELISA, coated human IL-23 (IL-23Fc), biotinylated antibody, streptavidin-HRP, mOD at 450 nm [panel A]. A general note: An ELISA detects its analyte on a solid surface through an enzyme-linked reagent.
For assay [2] the target is unchanged. Description: ELISA, coated antigen, biotinylated antibody.

Results are given in words; binding and its absence hold for the method and conditions named. Some binding calls cover weakened binding; strength is not graded here.

B1: E11E7Chimera (antibody, human IgG1, kappa, V domains shown)
VH: QVQLKESGPGLVQPSQTLSLTCTVSGFSLISYNVHWVRQPRGKGLEWMGVIWTGGSTDYNSVLKSRLSISRDTSKSQVFLKMHSLQTEDIGTYYCARDKYGLFPGYFDYWGQGVMVTVSS
VL: DIVMTQSPFSLAVSEGEMVTINCKPSQSLLSSGNRKNYLAWYQQKPGQSPKLLIYYASTRQSGVPDRFIGSGSGTDFTLTISDVQAEDLADYYCLQHFNYPWTFGGGTKLELKR
With B1, the binding entry in assay [1] and in assay [2] was “binds” throughout.
